# The supplement of paper PMC10735217
# The other results are listed elsewhere or left out. Repeats in this data set agree poorly, so a single value says little.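 The human kidney-derived cells carry a stably integrated construct of eight TEAD-binding elements driving luciferase, read by luminescence in a drug-repurposing library screen. A compound counts as a hit when its signal is more than five robust Z scores above the plate mean.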
# Test system: HEK293A TEAD-LUC reporter
# Experiment: TEAD-luciferase reporter activity (YAP activation), robust Z score vs plate; higher = stronger YAP/TEAD activation
# Conditions: 24 h
SMILES,TEAD-luciferase reporter activity (compound concentration: 200 nM),TEAD-luciferase reporter activity (compound concentration: 2 uM),TEAD-luciferase reporter activity (compound concentration: 10 uM)
CC1=C2[N+]3=C(C=C4[N+]5=C(C(C)=C6[N]7C(C(CC(N)=O)C6(C)CCC(=O)NCC(C)OP(=O)(O)OC6C(CO)OC(n8cnc9cc(C)c(C)cc98)C6O)C6(C)[N+](=C1C(CCC(N)=O)C6(C)CC(N)=O)[Co]753[CH3])C(CCC(N)=O)C4(C)C)C(CCC(N)=O)C2(C)CC(N)=O (stereo not given),inactive: -0.697,inactive: -1.62,–
CCCC(=O)N1Cc2ccccc2CC2(CCCCN2CC)C1 (stereo not given),inactive: 0.264,–,inactive: 1.39
CN(C)CC(c1ccc(O)cc1)C1(O)CCCCC1 (stereo not given) [desmethylvenlafaxine],inactive: -1.02,inactive: 1.06,inactive: -0.308
O=C(O)c1ccc2nc3ccccn3c(=O)c2c1 [doqualast],inactive: -1.62,inactive: -1.12,inactive: 2.45
C=CCSc1nnc(-c2cc(C(C)(C)C)c(O)c(C(C)(C)C)c2)s1,inactive: -0.631,inactive: 1.08,inactive: -0.406
CC/C(=C(/CC)c1ccc(OP(=O)(O)O)cc1)c1ccc(OP(=O)(O)O)cc1,inactive: -1.59,inactive: 2.24,inactive: 0.538
Cc1ccc(Cn2nc(-c3ccc(Cl)c(C)c3)cc2C(=O)N[C@@H]2C(C)(C)[C@@H]3CC[C@@]2(C)C3)cc1,inactive: -0.644,inactive: -0.849,inactive: 1.2
COc1ccc(C(C)=O)c(OCCCS(=O)(=O)c2ccccc2)c1,inactive: -0.553,inactive: -1.36,inactive: -0.415
CCCCCCCCCC[N+](C)(C)CCOC(=O)C12CC3CC(CC(C3)C1)C2,inactive: -1.3,inactive: -0.793,inactive: 2.54
CN(C(=O)CNc1nc(-c2ccc(C(F)(F)F)cc2)nc(-c2ccccc2)c1Cl)C1CC1,inactive: -2.52,inactive: 1.77,inactive: 1.65
OC1(c2ccccc2)C2=NCCCN2c2ccccc21 (stereo not given),inactive: 0.121,inactive: -2.51,inactive: 0.301
COc1cc(Nc2ncc3c(n2)-c2ccc(Cl)cc2C(c2c(F)cccc2OC)=NC3)ccc1C(=O)O [alisertib],inactive: -0.8,inactive: -1.44,inactive: -0.12
C[C@H](/C=C/[C@H](C)C(C)(C)O)[C@H]1CC[C@H]2/C(=C/C=C3C[C@@H](O)C[C@H](O)C3)CCCC12C (stereo not given in full) [Paricalcitol],inactive: -0.674,inactive: -1.34,inactive: -1.48
O=c1[nH]c(=O)n([C@H]2C[C@H](O)[C@@H](CO)O2)cc1I [Idoxuridine],inactive: -1.21,–,inactive: 2.44
"O=c1[nH]c(=O)n([C@H]2C[C@H](O)[C@@H](CO)O2)cc1I [idoxuridine, APR]",–,inactive: 2.35,–
CCOCn1c(Cc2ccccc2)c(C(C)C)c(=O)[nH]c1=O [Emivirine],inactive: 0.0545,inactive: 0.0142,inactive: 1.9
CCO[C@@H]1OC(=O)C[C@@H]1NC(=O)[C@@H]1CCCN2C(=O)CC[C@H](NC(=O)c3nccc4ccccc34)C(=O)N12 [pralnacasan],inactive: -0.594,inactive: 1.67,inactive: -1.78
O=C(Oc1ccc2c(c1)CCCN2C(=O)C(Cl)Cl)c1ccco1 [quinfamide],inactive: -1.76,inactive: -0.38,inactive: 3.79
CC(=O)C(=O)[O-] [Sodium pyruvate],inactive: 1.33,inactive: -0.257,inactive: -1.05
C[C@@H]1CC[C@]2(C)CC[C@]3(C)C(=CC(=O)C4[C@@]5(C)CC[C@@H](O)[C@](C)(C(=O)O)C5CC[C@]43C)C2[C@H]1C (stereo partly drawn) [11-Keto-beta-boswellic acid],inactive: 0.247,inactive: -0.559,inactive: -0.138
COc1ccc2[nH]cc(CCNC(=O)c3cc(=O)c(OC)co3)c2c1,inactive: -0.308,inactive: 1.68,inactive: -1.93
NC[C@H]1O[C@H](O[C@H]2[C@H](O)[C@@H](O[C@H]3O[C@H](CO)[C@@H](O)[C@H](N)[C@H]3O)[C@H](N)C[C@@H]2N)[C@H](O)[C@@H](O)[C@@H]1O [Kanamycin],inactive: 2.85,inactive: -0.625,active: 5.3
O=C(O)Cc1ccccc1Oc1ccc(Cl)cc1Cl [fenclofenac],inactive: -0.272,inactive: -1.56,inactive: -0.243
CC(C)=CCOc1cc(NC(=S)c2ccoc2)ccc1Cl,inactive: -0.89,inactive: -0.279,inactive: -0.99
CCOc1ccc(Cc2cc([C@@H]3O[C@H](SC)[C@@H](O)[C@H](O)[C@H]3O)ccc2Cl)cc1 [Sotagliflozin],inactive: -1.17,inactive: 0.224,inactive: 0.855

# Exported tab-delimited: part of the list above.
SMILES	TEAD-luciferase reporter activity (compound concentration: 200 nM)	TEAD-luciferase reporter activity (compound concentration: 2 uM)	TEAD-luciferase reporter activity (compound concentration: 10 uM)
CCCC(=O)N1Cc2ccccc2CC2(CCCCN2CC)C1 (stereo not given)	inactive: 0.264	–	inactive: 1.39
COc1ccc2[nH]cc(CCNC(=O)c3cc(=O)c(OC)co3)c2c1	inactive: -0.308	inactive: 1.68	inactive: -1.93
